In PubChem BioAssay AID256 (DTP/NCI, 2004):
The list shows only some results of the screen, not a fair sample: its compounds were picked by chemical class. Other doses and runs of a compound may be missing. T/C is the treated group as % of the vehicle group. Some doses have a count of surviving animals in place of a T/C: the source holds a T/C of zero for them, seemingly a mark for toxic or unscored doses. Survivors were counted at the toxicity check, usually on the fifth day, unless a day is given; later deaths do not show. Schedule codes are those of the source, read here as Q, the interval in days (D) or hours (H), X, the number of doses. Some schedule codes hold Z or #, which are not explained here. For survival time, the PubChem record calls one and a half times the control and up active, and a quarter to a half above the control has no call in these data; cut-offs in other NCI protocols can differ. Some entries were tested several times; the results are listed from low to high. Some T/C values are marked as having no survivor count here; that says nothing about deaths at the dose. Some T/C values are followed by the survivors on the day toxicity was checked, most often the fifth; without a count or a note in brackets, all were alive then.

Tested on: CD2F1 mice, L1210 leukemia ip, survival T/C
Assay: NCI In Vivo Anticancer Drug Screen. Data for tumor model L1210 Leukemia (intraperitoneal) in CD2F1 (CDF1) mice
Conditions: higher T/C = longer survival
Procedure, shortened: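 Transplantable tumor in mice; compound-treated vs vehicle-treated groups. Read-out = treated/control ratio of the measured endpoint.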

[1] = T/C endpoint: mean survival time, dose: 50.0 mg/kg/injection, schedule: Q01DX009 (ip), vehicle: Klucel (hydroxypropylcellulose) (HPC)
[2] = T/C endpoint: mean survival time, dose: 100.0 mg/kg/injection, schedule: Q01DX009 (ip), vehicle: Klucel (hydroxypropylcellulose) (HPC)
[3] = T/C endpoint: mean survival time, dose: 200.0 mg/kg/injection, schedule: Q01DX009 (ip), vehicle: Klucel (hydroxypropylcellulose) (HPC)
[4] = T/C endpoint: mean survival time, dose: 100.0 mg/kg/injection, schedule: Q04DX003 (ip), vehicle: saline with Tween-80

With `CC(C)([N+](=O)[O-])C(C)(C)[N+](=O)[O-]` the T/C (T/C endpoint: mean survival time, dose: 10.0 mg/kg/injection, schedule: Q01DX009 (ip), vehicle: saline with Tween-80) was 93 % of control [5 of 6 alive], the T/C (T/C endpoint: mean survival time, dose: 20.0 mg/kg/injection, schedule: Q01DX009 (ip), vehicle: saline with Tween-80) was 95 % of control and the T/C (T/C endpoint: mean survival time, dose: 20.0 mg/kg/injection, schedule: Q04DX003 (ip), vehicle: saline with Tween-80) was 98 % of control. The T/C (T/C endpoint: mean survival time, dose: 40.0 mg/kg/injection, schedule: Q01DX009 (ip), vehicle: saline with Tween-80) was 90 % of control [4 of 6 alive], the T/C (T/C endpoint: mean survival time, dose: 40.0 mg/kg/injection, schedule: Q04DX003 (ip), vehicle: saline with Tween-80) was 92 % of control and the survivor count (T/C endpoint: mean survival time, dose: 80.0 mg/kg/injection, schedule: Q04DX003 (ip), vehicle: saline with Tween-80) was 3 of 6.
`CC(Cl)CN(CC(C)Cl)C(=O)c1ccccc1` (stereo unspecified) was tested, and the T/C [1] was 118 % of control, the T/C [2] was 109 % of control and the survivor count [3] was 1 of 3.
`CCCCCCCCCCCCOP(OCC)OCC` was tested, and the T/C (T/C endpoint: mean survival time, dose: 100.0 mg/kg/injection, schedule: Q04DX002 (ip), vehicle: saline with Tween-80) was 96 % of control, the T/C (T/C endpoint: mean survival time, dose: 200.0 mg/kg/injection, schedule: Q04DX002 (ip), vehicle: saline with Tween-80) was 92 % of control and the survivor count (T/C endpoint: mean survival time, dose: 400.0 mg/kg/injection, schedule: Q04DX002 (ip), vehicle: saline with Tween-80) was 1 of 3.
In the case of `C#CCOP(N)(=O)N(CCCl)CCCl` (stereo unspecified), the T/C (T/C endpoint: mean survival time, dose: 15.63 mg/kg/injection, schedule: Q01DX001 (ip), vehicle: DMSO) is reported as 98 % of control, the T/C (T/C endpoint: mean survival time, dose: 31.25 mg/kg/injection, schedule: Q01DX001 (ip), vehicle: DMSO) is reported as 98 % of control and the T/C (T/C endpoint: mean survival time, dose: 62.5 mg/kg/injection, schedule: Q01DX001 (ip), vehicle: DMSO) is reported as 97 % of control. For the same compound, the T/C (T/C endpoint: mean survival time, dose: 125.0 mg/kg/injection, schedule: Q01DX001 (ip), vehicle: DMSO) was 101 % of control, the T/C (T/C endpoint: mean survival time, dose: 250.0 mg/kg/injection, schedule: Q01DX001 (ip), vehicle: DMSO) was 98 % of control and the T/C (T/C endpoint: mean survival time, dose: 500.0 mg/kg/injection, schedule: Q01DX001 (ip), vehicle: DMSO) was 103 % of control. For the same compound, the survivor count (T/C endpoint: mean survival time, dose: 1000.0 mg/kg/injection, schedule: Q01DX001 (ip), vehicle: DMSO) was 0 of 6.
With `NC(CC(=O)NCc1ccc(S(=O)(=O)F)cc1)C(=O)O` (stereo unspecified) the T/C [1] was 108 % of control, the T/C [2] was 94 % of control and the T/C [3] was 96 % of control.
In the case of `O=[N+]([O-])c1cc(Cl)cc([N+](=O)[O-])c1O`, the T/C (T/C endpoint: mean survival time, dose: 25.0 mg/kg/injection, schedule: Q04DX003 (ip), vehicle: saline with Tween-80) is reported as 97 % of control, the T/C (T/C endpoint: mean survival time, dose: 50.0 mg/kg/injection, schedule: Q04DX003 (ip), vehicle: saline with Tween-80) is reported as 97 % of control and the T/C [4] is reported as 94 % of control. The survivor count [4] was 1 of 3, the survivor count (T/C endpoint: mean survival time, dose: 200.0 mg/kg/injection, schedule: Q04DX003 (ip), vehicle: saline with Tween-80) was 1 of 3 and the survivor count (T/C endpoint: mean survival time, dose: 400.0 mg/kg/injection, schedule: Q04DX003 (ip), vehicle: saline with Tween-80) was 0 of 3.
With `OC(CNCCCl)C(O)C(O)C(O)CNCCCl` (stereo unspecified) the T/C (T/C endpoint: mean survival time, dose: 1.25 mg/kg/injection, schedule: Q03HX016 (ip), vehicle: saline) was 102 % of control, the T/C (T/C endpoint: mean survival time, dose: 2.5 mg/kg/injection, schedule: Q03HX016 (ip), vehicle: saline) was 113 % of control and the T/C (T/C endpoint: mean survival time, dose: 3.75 mg/kg/injection, schedule: Q01DX009 (ip), vehicle: saline) was 118 and 133 % of control. For the same compound, the T/C (T/C endpoint: mean survival time, dose: 5.0 mg/kg/injection, schedule: Q01DX007 (ip), vehicle: other) was 127 % of control, the T/C (T/C endpoint: mean survival time, dose: 5.0 mg/kg/injection, schedule: Q01DX009 (ip), vehicle: other) was 120 % of control and the T/C (T/C endpoint: mean survival time, dose: 5.0 mg/kg/injection, schedule: Q03DX003 (ip), vehicle: other) was 113 % of control. For the same compound, the T/C (T/C endpoint: mean survival time, dose: 5.0 mg/kg/injection, schedule: Q03HX016 (ip), vehicle: saline) was 124 % of control, the T/C (T/C endpoint: mean survival time, dose: 5.0 mg/kg/injection, schedule: Q04DX003 (ip), vehicle: other) was 117 % of control and the T/C (T/C endpoint: mean survival time, dose: 7.5 mg/kg/injection, schedule: Q01DX009 (ip), vehicle: saline) was 139 and 156 % of control. The T/C (T/C endpoint: mean survival time, dose: 10.0 mg/kg/injection, schedule: Q01DX007 (ip), vehicle: other) was 143 % of control, the T/C (T/C endpoint: mean survival time, dose: 10.0 mg/kg/injection, schedule: Q01DX009 (ip), vehicle: other) was 142 % of control and the T/C (T/C endpoint: mean survival time, dose: 10.0 mg/kg/injection, schedule: Q03DX003 (ip), vehicle: other) was 132 % of control. The T/C (T/C endpoint: mean survival time, dose: 10.0 mg/kg/injection, schedule: Q03HX016 (ip), vehicle: saline) was 154 % of control, the T/C (T/C endpoint: mean survival time, dose: 10.0 mg/kg/injection, schedule: Q04DX003 (ip), vehicle: other) was 133 % of control and the T/C (T/C endpoint: mean survival time, dose: 10.0 mg/kg/injection, schedule: Q08DX002 (ip), vehicle: saline) was 113 % of control. For the same compound, the T/C (T/C endpoint: mean survival time, dose: 15.0 mg/kg/injection, schedule: Q01DX009 (ip), vehicle: saline) was 148 and 189 % of control, the T/C (T/C endpoint: mean survival time, dose: 20.0 mg/kg/injection, schedule: Q01DX007 (ip), vehicle: other) was 162 % of control and the T/C (T/C endpoint: mean survival time, dose: 20.0 mg/kg/injection, schedule: Q01DX009 (ip), vehicle: other) was 171 % of control. For the same compound, the T/C (T/C endpoint: mean survival time, dose: 20.0 mg/kg/injection, schedule: Q03DX003 (ip), vehicle: other) was 119 % of control, the T/C (T/C endpoint: mean survival time, dose: 20.0 mg/kg/injection, schedule: Q03HX016 (ip), vehicle: saline) was 137 % of control and the T/C (T/C endpoint: mean survival time, dose: 20.0 mg/kg/injection, schedule: Q04DX003 (ip), vehicle: other) was 151 % of control. The T/C (T/C endpoint: mean survival time, dose: 20.0 mg/kg/injection, schedule: Q08DX002 (ip), vehicle: saline) was 126 % of control, the T/C (T/C endpoint: mean survival time, dose: 30.0 mg/kg/injection, schedule: Q01DX009 (ip), vehicle: saline) was 136 and 184 % of control and the T/C (T/C endpoint: mean survival time, dose: 40.0 mg/kg/injection, schedule: Q08DX002 (ip), vehicle: saline) was 151 % of control. For the same compound, the T/C (T/C endpoint: mean survival time, dose: 80.0 mg/kg/injection, schedule: Q08DX002 (ip), vehicle: saline) was 171 % of control and the T/C (T/C endpoint: mean survival time, dose: 160.0 mg/kg/injection, schedule: Q08DX002 (ip), vehicle: saline) was 129 % of control [7 of 10 alive].
With `CCCCNCCCN.O=[N+]([O-])c1cc([N+](=O)[O-])c(O)c([N+](=O)[O-])c1` the T/C (T/C endpoint: mean survival time, dose: 100.0 mg/kg/injection, schedule: Q01DX001 (ip), vehicle: carboxymethylcellulose (CMC)) was 88 % of control [survivor count not shown].
In the case of `CCNP(=O)(OCc1ccccc1)N(CCCl)CCCl` (stereo unspecified), the T/C (T/C endpoint: mean survival time, dose: 128.0 mg/kg/injection, schedule: Q01DX Z (ip), vehicle: saline) is reported as 109 % of control, the T/C (T/C endpoint: mean survival time, dose: 256.0 mg/kg/injection, schedule: Q01DX Z (ip), vehicle: saline) is reported as 125 % of control [4 of 6 alive] and the survivor count (T/C endpoint: mean survival time, dose: 512.0 mg/kg/injection, schedule: Q01DX Z (ip), vehicle: saline) is reported as 0 of 6.
With `O=C1NP(=O)(Sc2ccccc2)C=CN1C1OC(CO)C(O)C1O` (stereo unspecified) the T/C (T/C endpoint: median survival time, dose: 15.5 mg/kg/injection, schedule: Q01DX005 (ip), vehicle: saline) was 110 % of control, the T/C (T/C endpoint: median survival time, dose: 31.0 mg/kg/injection, schedule: Q01DX005 (ip), vehicle: saline) was 103 % of control and the T/C (T/C endpoint: median survival time, dose: 62.0 mg/kg/injection, schedule: Q01DX005 (ip), vehicle: saline) was 103 % of control. For the same compound, the T/C (T/C endpoint: median survival time, dose: 124.0 mg/kg/injection, schedule: Q01DX005 (ip), vehicle: saline) was 98 % of control.
For `N=P(O)(OCCC(O)S(=O)(=O)O)N(CCCl)CCCl` (stereo unspecified), the T/C (T/C endpoint: mean survival time, dose: 25.0 mg/kg/injection, schedule: Q01DX001 (ip), vehicle: DMSO) was 111 % of control, the T/C (T/C endpoint: mean survival time, dose: 50.0 mg/kg/injection, schedule: Q01DX001 (ip), vehicle: DMSO) was 102 % of control and the T/C (T/C endpoint: mean survival time, dose: 100.0 mg/kg/injection, schedule: Q01DX001 (ip), vehicle: DMSO) was 120 % of control. The T/C (T/C endpoint: mean survival time, dose: 200.0 mg/kg/injection, schedule: Q01DX001 (ip), vehicle: DMSO) was 114 % of control, the T/C (T/C endpoint: mean survival time, dose: 266.0 mg/kg/injection, schedule: Q01DX001 (ip), vehicle: DMSO) was 107 % of control and the T/C (T/C endpoint: mean survival time, dose: 400.0 mg/kg/injection, schedule: Q01DX001 (ip), vehicle: DMSO, evaluated on day 25) was 114 % of control. For the same compound, the T/C (T/C endpoint: mean survival time, dose: 400.0 mg/kg/injection, schedule: Q01DX001 (ip), vehicle: DMSO, evaluated on day 40) was 123 % of control, the T/C (T/C endpoint: mean survival time, dose: 600.0 mg/kg/injection, schedule: Q01DX001 (ip), vehicle: DMSO) was 137 % of control and the T/C (T/C endpoint: mean survival time, dose: 900.0 mg/kg/injection, schedule: Q01DX001 (ip), vehicle: DMSO) was 109 % of control [4 of 6 alive].
